Test results: patent publication US7786129B2, “Piperazine derivatives of dialkyl oxindoles” (Egis Gyogyszergyar Nyrt, priority 2004, dated 2010)
Structures can show the parent of a compound that is named as a salt. For at least one compound, name, drawing or mass did not settle the structure.

Target: α1 receptor
Experiment: α1 receptor binding experiment
Settings: rat isolated frontal cortex preparation, ligand 3H-prazosine 0.3 nM
Protocol: Receptor bindings—with the exception of the 5-HT2C receptor binding—were determined by using cerebral region preparations of male Wistar rats weighing 120-200 g. For the preparation of 5-HT1A receptor binding frontal cortex preparations were used. The al receptor binding studies were performed from isolated frontal cortex pre-parations. For the 5-HT2C receptor binding experiments choroid plexus of pigs was used. The protein contents of membrane preparations were determined by the method of Lowry (1951).
In the course of 5-HT2C and α1 receptor binding experiments the ligands were ^3H-mesulergin (1.0 nM) and ^3H-prazosine (0.3 nM), respectively. The non-specifically binding ligands were mianserine (1 μM and prazosine (1 μM), respectively.
The IC50 value is the value of concentration where the difference between total and non-specific binding is 50% in the presence of a determined concentration of a specific ligand.

## CC(C)CC1(CCCCN2CCN(c3cccc(Cl)c3)CC2)C(=O)Nc2ccccc21 (stereo not shown) [Example 75, 3-{4-[4-(3-Chlorophenyl)-piperazin-1-yl]-butyl}-3-isobutyl-1,3-dihydro-2H-indol-2-one monohydrochloride]
  IC50: < 100 nM
